Experiment [1] addresses PVRL4_864 (94-957, 864 bps, r864p) recombinant fragment of Nectin-4 (PVRL4_HUMAN) (human) (UniProt Q96NY8). Nature of the experiment: western blot of PVRL4 864 probed with purified scFv.
Experiment [2] deals with BML01-nectin4 (human) (UniProt Q96NY8). Nature of the experiment: flow cytometry, 20 µl candidate phage clone on 1x10^5 cells, detected with anti-HA antibody [Cont.].
For experiment [3] the target is unchanged. Nature of the experiment: cell-based ELISA with phage clones, ratio of OD on BML01-nectin4 to OD on BML01.
Experiment [4] shares this target. Nature of the experiment: cell-based ELISA, 50 µl candidate phage culture on BML01-nectin4 and BML01 cells, anti-M13-HRP detection.
A further experiment addresses r639p (human) (UniProt Q96NY8). Nature of the experiment: western blot of r342p, r639p and r864p (lanes 1-3), scFv S21 20 µg/ml.

Amino acid sequences for entries named in this document (tags omitted). A change or cut given only in a name is not applied to a line headed by its entry. Residues count along the entry.
UniProt Q96NY8: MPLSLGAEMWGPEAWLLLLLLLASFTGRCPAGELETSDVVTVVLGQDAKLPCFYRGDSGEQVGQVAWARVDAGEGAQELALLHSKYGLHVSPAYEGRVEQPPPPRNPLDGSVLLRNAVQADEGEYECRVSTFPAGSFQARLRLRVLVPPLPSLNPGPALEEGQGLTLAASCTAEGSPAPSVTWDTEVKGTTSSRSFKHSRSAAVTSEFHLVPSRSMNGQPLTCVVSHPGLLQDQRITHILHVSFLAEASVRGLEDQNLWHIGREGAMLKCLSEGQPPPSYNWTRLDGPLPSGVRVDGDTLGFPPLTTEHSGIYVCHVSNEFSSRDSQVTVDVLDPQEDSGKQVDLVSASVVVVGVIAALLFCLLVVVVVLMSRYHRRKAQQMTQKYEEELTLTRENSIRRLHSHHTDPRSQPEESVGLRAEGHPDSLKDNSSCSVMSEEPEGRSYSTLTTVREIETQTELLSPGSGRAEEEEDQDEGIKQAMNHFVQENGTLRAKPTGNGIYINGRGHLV
BML01-nectin4: residues 32-510 of Q96NY8
PVRL4_864 (94-957, 864 bps, r864p) recombinant fragment of Nectin-4 (PVRL4_HUMAN): residues 32-319 of Q96NY8
r639p: residues 32-244 of Q96NY8

Results are given in words; binding and its absence hold for the method and conditions named. Some entries that bind do so weakly or less than the wild type.

This note sets out measurements from patent US20230220078A1 (NAVI BIO THERAPEUTICS, published 2023).

B1: S2 (scFv)
scFv (VH and VL joined by a linker; order and linker not stated for this clone): TVTLDESGGGLQTPGGGLSLVCKGSGFTFSSNGMAWVRQAPGKGLEFVGGVNAAGSWTGYGAAVKGRATISRDNGQSTVRLQLNDLRAEDTGTYYCAKTADDWYGADDIDAWGHGTEVIVSSALTQPSSVSANPGETVEVTCSGDDSRYYGWYQQKSPGSAPVTVIYYNDKRPSDIPSRFSGSKSGSTGTLTITGVQAEDEAVYFCGAYDSTTHSGSAFGAGTTLTVL
Consider B1, for which the binding result in experiment [1] is reported as “binds”.

B2: S8 (scFv)
scFv (VH and VL joined by a linker; order and linker not stated for this clone): TVTLDESGGGLQTPGGGLSLVCKASGFTFNDYGMGWMRQAPGKGLEWVAGISGSGSYTDYGAAVKGRAIISRDNGQSTVRLQLNNLRAEDTGTYVCAKGSNSAYPDAADIDAWGHGTEVIVSSALTQPSSVSANLGGTVEITCSGGSGYGYGWYQQKSPGSAPVTVIYSNDKRPSDIPSRFSGSASGSTATLTITGVRAEDEAVYFCGGYDSSASYVGIFGAGTTLTVL
Regarding B2, the binding result with BML01-nectin4 (human) [2], with BML01-nectin4 (human) [3] and with BML01-nectin4 (human) [4] was “binds” throughout.

B3: NECTIN4-scFv-S21 (scFv, V domains shown)
VH: AVTLDESGGGLQTPGGALSLVCKASGFTFSSYAMMWVRQAPGKGLEYIAGIRSDGRYTYYGAAVKGRATISRDNGQSTVRLQLNNLRAEDTGTYYCAKSGVTDTSSSTYSSASNIDAWGHGTEVIVSS
VL: ALTQPSSVSANLGGTVKITCSGGSGSYGWYQQKSPGSAPVTLIYANTNRPSDIPSRFSGSKSGSTSTLTITGVQAEDVAVYYCGSRDSSYVGIFGAGTTLTVL
notes: Chicken-derived scFv from a pComb3X phage library, tested as purified scFv; also called anti-PVRL4 scFv S21; NECTIN4-scFv-521
Consider B3, for which, in the experiment with r639p (human), the binding entry was “binds”.
